Primary screen of a compound library

Source: ChEMBL document CHEMBL3988442, “University of Dundee, Small-Polar-MMV Screening Library” (2021).

A: 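Whole-cell assay for inhibitors of Mycobacterium tuberculosis growth, labelled Cornell in the record; the read-out is not stated. The concentration is filed as 10 mM, unlikely as a test dose, so the dose is not known. The record gives no direction; compounds strong in two other growth screens of this library score well above the rest, so higher reads as stronger inhibition. Of about 53,000 compounds tested this way, about 900 (1.7%) reached 50% or more in at least one test.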
B: 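Assay on Mycobacterium tuberculosis, filed only as a heat shock assay from Cornell; the read-out is not stated. The concentration is filed as 10 mM, unlikely as a test dose, so the dose is not known. Direction is inferred from retests: higher values go with stronger inhibition. Of about 69,000 compounds tested this way, about 930 (1.4%) reached 50% or more in at least one test.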

Each number is a percent effect as filed. The controls that fix the scale are not given in the record; negative values are as filed. The compounds are a random part of those screened. A dash means the value is not listed here; it may have been measured.

| compound | A | B |
|---|---|---|
| `Cc1cc(C(=O)N2CCCC(n3cncn3)C2)c(C)n1CC1CC1` (stereo not given) | - | 4.34% |
| `[H][C@]12CCC(=O)N(c3ccccc3)[C@@]1([H])CCN2C(=O)C1CC=CC1` | -9.211% | 3.539% |
| `Cc1ccc(O)c(CNc2cccc(OCCF)c2)n1` | 15.63% | -2.11% |
| `O=C(O)C(F)(F)F.[H][C@@]12COC[C@]1(CNC(=O)c1ccco1)CN(Cc1cnn(C)c1)C2` | -4.542% | 3.302% |
| `COCCCn1cnnc1C(C)NC(=O)c1[nH]c2ccc(C)cc2c1C` (stereo not given) | -5.485% | 0.1595% |
| `O=C1N(Cc2ccc(F)c(F)c2)CCCC1(O)CNCC1CCCCC1` (stereo not given) | -18.44% | -14.31% |
| `CC(NCC1=Cc2cc(Cl)ccc2OC1)c1nnc2n1CCCC2` (stereo not given) | 29.36% | 15.37% |
| `O=C1NCCCc2[nH]c(Cc3ccc(F)cc3)nc21` | -1.796% | 20.62% |
| `[H][C@@]12CCC(=O)N(CCCOC)[C@]1([H])CCN(c1nc3ccccc3s1)C2` | 11.89% | 3.746% |
| `CO[C@@H]1CN(c2ccccc2)S(=O)(=O)[C@@]12CCN(Cc1cncs1)C2` | 7.522% | 5.425% |
| `Cc1cnn(CC2CCCCN2C(=O)c2ccc(N(C)C)nc2)c1` (stereo not given) | - | -7.783% |
| `CN(Cc1c(F)cccc1Cl)C(=O)Nc1cnn(CC(N)=O)c1` | -36.19% | -0.664% |
| `Cc1ccnc(NCc2cccc(OCCN3CCOCC3)c2)n1` | -14.1% | 19.96% |
| `CC(C)c1ccsc1C(=O)N1CCCN(Cc2cscn2)CC1` | - | 26.24% |
| `Cc1cc(C(=O)N2CCn3cc(CN4CCCC4)nc3C2)no1` | 9.149% | -5.172% |
| `CCOC(=O)C1CCN(C(=O)Cn2ccc3cc(Br)ccc32)CC1` | - | -3.137% |
| `Cc1nc(-c2ccco2)ccc1C(=O)NCCC(=O)N1CCCCC1` | 22.48% | 11.19% |
| `COc1cc2c(cc1CNC(=O)C(C)n1ccnc1C(C)C)CCC2` (stereo not given) | -17.92% | 6.908% |
| `O=C(NCCCc1nc(=O)[nH][nH]1)c1ccc(Cl)cn1` | -17.28% | 9.768% |
| `NCC(=O)N1CCCCC1c1ccc(F)cc1` (stereo not given) | -0.1087% | 10.97% |
| `O=C(c1cocn1)N1CCC[C@]2(C[C@@H](Oc3ncccc3F)CO2)C1` | -2.353% | -11.32% |
| `Cc1cc(CS(=O)(=O)C(C)c2ccc(F)cc2)on1` (stereo not given) | -6.243% | 1.213% |
| `COc1cccc(NC(=O)c2nc3ccccc3n(C)c2=O)c1` | 19.08% | 32.87% |
| `O=C(O)C(F)(F)F.c1cncc(N2CCOCC3(CCCN(c4nncs4)C3)C2)c1` (stereo not given) | 10.08% | 6.83% |
| `[H][C@@]12CCN(C(=O)C3CCOCC3)C[C@]1(c1nc(C)no1)CCO2` | 31.07% | 2.338% |
| `CCOc1cc(-c2cc(=O)n3c(n2)CCCCC3)ccc1O` | -0.7902% | 0.1699% |
| `CCc1nc(N)nc(NCCC(=O)NC2CCCCC2)c1C` | - | -0.1811% |
| `CCn1nnc(NCc2cc(Cl)cc(Cl)c2OC)n1` | -2.573% | 4.954% |
| `OCCN(Cc1nc(-c2ccc3c(c2)OCO3)no1)CC1CC1` | 20.75% | -23.97% |
| `O=C(c1ccncc1)N1CCCC(C2=Nc3ccccc3S(=O)(=O)N2)C1` (stereo not given) | 43.45% | -9.62% |
| `COCCOCC(=O)Nc1ccc(C)cc1Br` | -19.4% | 23.8% |
| `CN(CCO)c1nc(-c2ccccn2)nc2c1CCNC2` | 17.51% | -10.04% |
| `CC(C)c1noc(-c2ccc(NCc3noc(C(C)C)n3)nc2)n1` | 38.88% | 21.14% |
| `Cc1csc(CNC(=O)NCC(O)c2ccc(F)c(F)c2)n1` (stereo not given) | -17.47% | 2.745% |
| `O=S(=O)(c1ccccc1)N1CCC2(CCCN2Cc2ccc(Cl)cc2)C1` (stereo not given) | 14.01% | 7.257% |
| `CCN1CCCC1CNC(=O)Cc1c(C)n[nH]c1-c1ccc(F)cc1` (stereo not given) | 24.06% | -19.54% |
| `O=C(Nc1cccn(CC(F)(F)F)c1=O)c1ccc(F)cc1` | -1.438% | -12.66% |
| `COCC1CN(c2ccc(C#N)c(Cl)c2)CCO1` (stereo not given) | -9.226% | -1.076% |
| `CCN1CCN(CC(O)c2cc(Cl)ccc2Cl)CC1` (stereo not given) | -13.69% | -1.47% |
| `CC(C)CCN1C2(CCN(C(=O)C3(C)CC3)C2)c2ccccc2S1(=O)=O` (stereo not given) | 9.093% | -14.19% |
| `O=C(Nc1ncc[nH]1)c1cc(-c2cccnc2)n[nH]1` | 6.683% | 0.3528% |
| `COc1ccc(C(=O)N2C[C@@H](C(=O)O)[C@H](c3ccccc3)C2)c(C)c1` | - | 25.72% |
| `[H][C@]12CN(C(=O)c3cnn(C)c3)CC[C@@]1(O)CCN(C1CCCCC1)C2` | -17.1% | 0.6046% |
| `O=C(c1ccn(-c2ccccc2)n1)N1CCCC(n2cccn2)C1` (stereo not given) | 12.26% | -12.61% |
| `[H][C@]12CCN(S(C)(=O)=O)[C@@]1([H])CCC(COCC(=O)N1CCCC1)O2` (stereo not given in full) | 9.227% | -27.06% |
| `O=C(O)C(F)(F)F.[H][C@]12CCN(Cc3c(C)noc3C)[C@@]1([H])CC[C@@H](COCC)O2` | 15.78% | -0.3502% |
| `CCN1CCCC(C)(C(=O)NCCc2n[nH]c(=O)[nH]2)C1` (stereo not given) | -3.522% | 14.06% |
| `Cc1cnccc1CCNC(=O)Nc1cnc(N(C)C)nc1` | -7.854% | 1.299% |
| `CCN1C(=O)CCC12CCN(S(=O)(=O)c1ccccc1)CC2` | - | -0.2385% |
| `COc1cc(S(=O)(=O)N2C[C@@H](C)[C@@](C)(O)C2)c(C)cc1C` | 7.397% | -4.584% |
| `Cc1noc(CN(C)CC2CCCN(CCc3ccc(Cl)cc3)C2)n1` (stereo not given) | 24.75% | -4.526% |
| `Cc1cc(C(=O)N2C[C@H](CO)C[C@H](CN3CCOCC3)C2)cnc1C` | - | -13.69% |
| `O=C(Nc1cccnc1)C1CCN(c2cc(-n3ccnc3)ncn2)CC1` | 5.228% | 0.1375% |
| `O=C(O)C(F)(F)F.[H][C@@]12CCN(c3ncccn3)C[C@]1(C(=O)NCc1ccco1)CCO2` | 26.45% | -14.82% |
| `NC(=O)c1cc(C2CCCN(CCc3ccc4c(c3)CCO4)C2)n[nH]1` (stereo not given) | -14.17% | -8.21% |
| `CC(C)N(C(=O)Cn1cc(Cl)cn1)c1ccccc1` | 23.27% | -26.6% |
| `N#Cc1ccccc1C(=O)N1CCC2(CC(=O)NC2=O)C1` (stereo not given) | - | -18.08% |
| `CN(C)CCNc1cc(-c2ccccc2C(N)=O)c2cc[nH]c2n1` | -19.65% | -42.04% |
| `COc1cccc2c1OCCCN(c1nc3c(c(=O)[nH]1)CCNCC3)C2` | 15.25% | 1.15% |
| `COCCNC(=O)CN(C)C(C)c1nc(C)no1` (stereo not given) | -0.9867% | -0.4678% |
| `O=C(c1ccncc1)N1CCC2(CC1)CCN(C(=O)c1cccnc1)C2` | -12.4% | 35.54% |
| `O=C(NC1CCCC1)c1nc2c(o1)CN(CCO)C2` | 11.44% | 51.46% |
| `CS(=O)(=O)NCc1cccc(COC2CCCCC2)c1` | 9.206% | 7.852% |
| `Cc1noc(C)c1C(=O)N1CCC(c2cc3cnccc3[nH]2)CC1` | 40.05% | -4.9% |
| `Cc1cc(C(=O)N2CCN(Cc3ccsc3)CC2)c(C)n1C1CC1` | 2.506% | 15.38% |
| `COCC[C@]1(O)CCN(C(=O)c2cnn(C)c2)C[C@H]1C` | -13.37% | -8.814% |
| `CSCC(CCO)NC(=O)Nc1ccc(C)cc1Br` (stereo not given) | 9.624% | 5.189% |
| `Cc1noc(C)c1CN1CCCCC1c1nc(-c2ccccc2)no1` (stereo not given) | 24.4% | -13.3% |
| `Cc1cc(NC(=O)CNCc2csc(-c3ncccn3)n2)ccc1Cl` | 10.58% | 12.87% |
| `CC(C)N[C@@H]1CC[C@@H]1NC(=O)c1ccccc1OC(F)(F)C(F)F` | 8.698% | -9.86% |
| `Cc1cc(C)c(CNC(=O)Cc2ccc3c(c2)CCCC3)c(=O)[nH]1` | - | -4.796% |
| `Cc1nc(CN2CCN(C)C(=O)C23CCN(CC2CCCC2)CC3)cs1` | -16.2% | 23.88% |
| `O=C1NC2(CCN(CCc3ccccc3)CC2)CC1c1ccccc1` (stereo not given) | 19.15% | -13.53% |
| `COc1c(C)cnc(CN2CCOC(CNc3cccnn3)C2)c1C` (stereo not given) | - | -15.57% |
| `CC1(C)CC(N2Cc3nc(N)ncc3C2=O)CC(C)(C)N1` | 5.443% | 17.44% |
| `O=C(CN1CCCc2sccc2C1=O)NC1CCc2nccn2C1` (stereo not given) | - | -7.268% |
| `CC(C)(C)c1n[nH]c(C2CN(C(=O)c3csnn3)CCO2)n1` (stereo not given) | -7.192% | 3.188% |
| `O=C(CN1CCCc2c(F)cc(Br)cc21)N1CCCC1` | 23.53% | 10.41% |
| `CN(C)C(=O)NCc1ncn2c1CN(Cc1ccco1)CCC2.O=C(O)C(F)(F)F` | -14.91% | -12.13% |
| `Cn1ncc2c1NC(=O)CSC2c1ccc2c(c1)OCO2` (stereo not given) | 17.02% | 8.092% |
| `CCC(CO)N(Cc1ccco1)C(=O)c1ccc(F)cc1Cl` (stereo not given) | - | -21.81% |